This note sets out measurements from PubChem BioAssay AID493014 (National Center for Advancing Translational Sciences (NCATS), 2011).

The test can be described thus: qHTS Assay to Find Inhibitors of Chronic Active B-Cell Receptor Signaling. The settings on record: ABC-DLBCL IkBa-CBG/CBR reporter, luminescence ratio (green luciferase fused to IkBa over red control in TMD8 lymphoma cells), 4 h. An outline of the steps: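 Doxycycline induced both beetle luciferases in TMD8 lymphoma cells; IKK-driven degradation limits the IkappaBalpha-fused green signal, while red luminescence normalises for cell number and nonspecific effects. Compounds tested up to 46 uM, 4 hrs.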
Background: Quantitative high-throughput screening tests each substance at several concentrations.

The mark [1] stands for this setting: measured here: CBR red luminescence, cell number.
Where [2] appears, read: measured here: IkBa-CBG green luminescence.

The other results are listed elsewhere or left out. Further columns of the screen follow, without active or inactive calls. Most of these compounds were active or inconclusive in the main read-out, so they are no random draw. The note in brackets gives the kind of curve behind each potency; many fits are weak.

For `O=C(OCc1ccco1)c1ccc(S(=O)(=O)N2CCCCC2)cc1`, under setting [1], the half-maximal activity concentration (AC50) was 5.17 µM [rising, partial curve].
For `COc1cccc(-c2ccc3ncnc(NCc4cc(C)cs4)c3c2)c1`, the AC50 under setting [1] was 29.1 µM [falling, single point].
For the compound `Cc1cccc(-c2nc3ccccc3c(=O)n2NC(=O)c2cccs2)c1`, under setting [1], the concentration at half-maximal activity (AC50) was 29.1 µM [rising, single point].
As to `CCOC(=O)C1=C(O)CCn2c1nc1ccccc12`, the AC50 under setting [1] was 3.26 µM [falling, full curve].
As to `Cc1ccc(Cl)cc1N1CCN(C(=S)NCCc2ccccc2)CC1`, the AC50 under setting [1] is 20 µM [falling, single point].
In the case of `COc1ccc(-c2sc(Nc3ccccc3)n[n+]2-c2ccc(F)cc2)c(C)c1C`, the concentration at half-maximal activity (AC50) under setting [1] was 2.82 µM [falling, full curve].
For `COc1ccc(-n2nc3c(c2NC(=O)c2c(F)cccc2Cl)CS(=O)C3)cc1` (stereo not given), the AC50 under setting [1] was 2.31 µM [rising, single point].
Take `Cc1c(CCNS(=O)(=O)c2ccccc2)sc2nc(-c3ccc(Cl)cc3)nn12`: the half-maximal activity concentration (AC50) was 22.4 µM [falling, partial curve] under setting [1] and 20 µM [rising, partial curve, poor fit] under setting [2].
With `CN1CCN(c2ccc(NC(=O)c3ccc4c(c3)OCCO4)cc2Cl)CC1`, the concentration at half-maximal activity (AC50) under setting [1] was 22.4 µM [falling, single point].
For `O=C(N/N=C/c1ccoc1)c1ccccc1`, the concentration at half-maximal activity (AC50) under setting [1] was 7.08 µM [falling, partial curve].
In the case of `CC1CCC2(CC1)NC(=O)N(CC(=O)c1cn(CCC#N)c3ccccc13)C2=O` (stereo not given), under setting [1], the half-maximal activity concentration (AC50) is 5.62 µM [falling, full curve, poor fit].
Consider `COc1ccc(S(=O)(=O)N(C(=O)c2ccco2)c2cc3sc(=O)oc3c3ccccc23)cc1`, for which, under setting [1], the half-maximal activity concentration (AC50) was 29.1 µM [falling, single point].
As to `COc1ccc(NC(=O)Nc2cccc(C)n2)c(OC)c1`, the AC50 under setting [1] was 1.41 µM [rising, full curve].
As for `N#C/C(=C\c1ccc(OCc2ccc(C(=O)O)cc2)cc1)C(=O)N1CCOCC1`, the AC50 under setting [1] is 20.6 µM [falling, partial curve].
Turning to `COc1ccc(-c2nc(CSCC(=O)NCc3ccco3)c(C)o2)cc1`, the half-maximal activity concentration (AC50) under setting [1] is 35.5 µM [falling, single point].
Turning to `O=C1CN(C(=O)COC(=O)c2ccc(Cl)cc2)c2ccccc2N1`, the AC50 under setting [1] is 1.64 µM [rising, full curve].
Take `COCC1CCN(C(=O)C2CCN(c3nc(-c4ccccc4)nc4c3CCC4)CC2)C1` (stereo not given): the concentration at half-maximal activity (AC50) under setting [1] is 20 µM [falling, single point].
The same measure, in the same setting: for `CCC1(CC)Cc2ccccc2C(C2=C(O)CC(C)(C)CC2=O)=N1` the value was 5.8 µM [rising, partial curve].
The same measure, in the same setting: the same measure for `Cc1cccc(NC(=O)NC(C)CCc2ccccc2)c1` (stereo not given): 0.00517 µM [rising, full curve, poor fit]; for `O=C(CCc1ccccc1)Nc1ccc2c(c1)OCCO2`: 11.2 µM [falling, partial curve]; for `NC(=O)COc1ccc(C(=O)/C=C2/C(=O)Nc3ccccc32)cc1`: 7.94 µM [falling, partial curve, poor fit].
Same read-out and setting: the same measure for `C(=Nc1ccc(N2CCOCC2)cc1)c1c[nH]c2ccccc12`: 0.1 µM [rising, full curve, poor fit]; for `CCc1ccc(OCCOC(=O)Nc2ccccc2)cc1`: 35.5 µM [rising, single point]; for `Nc1ccc(SC(F)(F)F)cc1`: 3.55 µM [falling, partial curve, poor fit].
Consider `O=C(Nc1ccc(F)c([N+](=O)[O-])c1)C(=O)c1c(O)[nH]c2ccccc12`, for which, under setting [1], the half-maximal activity concentration (AC50) was 1.26 µM [falling, full curve].
As to `C/C(Cn1cnc([N+](=O)[O-])n1)=N\NC(=O)c1cccnc1`, under setting [1], the concentration at half-maximal activity (AC50) is 18.4 µM [falling, single point].
Take `COc1ccc(NCc2nc3ccccc3n2CCOc2ccc(C)cc2)cc1`: under setting [1], the AC50 was 3.66 µM [falling, full curve].
Turning to `COc1ccc(C(=O)/C=C/C(=O)N(Cc2ccc3c(c2)OCO3)C(C(=O)NC2CCCCC2)c2ccncc2)c(O)c1` (stereo not given), under setting [1], the AC50 is 29.1 µM [falling, single point].
Take `Cc1ccccc1SCC(=O)Nc1cccc(C#N)c1`: under setting [1], the concentration at half-maximal activity (AC50) is 14.6 µM [rising, partial curve, poor fit].
On to `CCOc1cccc(CNCCO)c1OCc1ccc(Cl)cc1Cl`, for which, under setting [1], the concentration at half-maximal activity (AC50) was 23.1 µM [falling, partial curve, poor fit].
`CCCCc1nnc(NC(=O)C2=COCCO2)s1`: under setting [1], the concentration at half-maximal activity (AC50) was 22.4 µM [falling, single point].
Turning to `c1ccc(Nc2ccccc2)cc1`, under setting [1], the AC50 was 29.1 µM [rising, single point].
With `COC(=O)Nc1ccc(S(=O)(=O)Nc2ccc(C)cc2)cc1`, the AC50 under setting [1] was 29.1 µM [falling, single point].
With `O=C(CC1S/C(=N/N=C/c2ccco2)NC1=O)Nc1ccccc1` (stereo not given), the AC50 under setting [1] was 10 µM [rising, partial curve, poor fit].
Regarding `O=C(c1ccc2c(c1)OCO2)N1CCC2(CC1)Oc1ccc(Cl)cc1C(=O)C21CC(c2cccnc2)=NO1` (stereo not given), the AC50 under setting [1] was 17.8 µM [falling, single point].
As to `COc1ccc(O)c(-c2nc(N)nc(N)n2)c1`, the AC50 was 10.3 µM [falling, partial curve] under setting [1] and 8.2 µM [rising, partial curve, poor fit] under setting [2].
On to `Nc1ccccc1SCc1cn2ccccc2n1`, for which, under setting [1], the AC50 was 4.61 µM [rising, single point].
Turning to `O=C(N/N=C/c1ccc2c(c1)OCCO2)c1ccncc1`, the AC50 under setting [1] is 12.6 µM [falling, partial curve].
With `CC(C)(C)c1ccc(C(=O)Oc2ccc3c(c2)OCC3=O)cc1`, the AC50 under setting [1] is 18.4 µM [rising, single point].
For `Cc1nn(C(C)C(=O)NNC(=S)Nc2ccc(Cl)cc2)c(C)c1[N+](=O)[O-]` (stereo not given), under setting [1], the AC50 was 16.4 µM [rising, single point].
For `COc1ccc(-c2cc(-c3ccc(OC)c(OC)c3)n[nH]2)c(O)c1`, the half-maximal activity concentration (AC50) under setting [1] is 16.4 µM [falling, partial curve].
With `CCOC(=O)c1c(C)n(C)c2ccc(OC)c(NC(=O)CN3CCN(C(=O)c4ccco4)CC3)c12`, the AC50 was 10 µM [rising, partial curve] under setting [1] and 10 µM [falling, partial curve] under setting [2].

One may read the AC50 as the midpoint of the concentration-response curve, whichever way the signal moves.
